Measurements reported in PubChem BioAssay AID652243 (Drosophila RNAi Screening Center, 2013)
The deposit covers about 24,000 reagents; shown is an unselected part of those with a known target gene and a result. In the full data, 246 (1%) got an active call. 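Plates not normalised; calls are printed but the firefly/Renilla ratio behind them is not deposited; fold cut for lowering reported inconsistently.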 The raw values are shown without normalisation. Names joined by + are all predicted targets of the reagent. Not stated in the record: the amount of reagent.

Purpose: 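Knock-downs that decrease or increase androgen receptor reporter signal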 (primary screen)
Cells: Drosophila S2R+ cells
Reagents: long dsRNA against Drosophila genes
Duration: 72 h (48 h, then 24 h hormone)
Conditions: synthetic androgen R1881 at 10 nM for 24 h
Measurement: 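Firefly light from an androgen-responsive reporter and Renilla control light per well, raw and unnormalised, for each of two replicates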
Reading the numbers: firefly reporter light: higher = more light from androgen-responsive reporter; Renilla control light: higher = more constitutive control signal (cell number, transfection)
Rule for the call: 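Hit when the log firefly-to-Renilla ratio dropped or increased by a fixed fold versus the mean of GFP or LacZ controls across duplicate plates; lowering cut given as 1.5 and as 3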
Meaning of the calls: active = hit: reporter lowered or raised; inactive = no hit

target gene | dsRNA | firefly reporter light, replicate 1 | firefly reporter light, replicate 2 | Renilla control light, replicate 1 | Renilla control light, replicate 2 | Outcome
CG14736 | DRSC14956 | 1.77e5 | 2.22e5 | 2.72e6 | 3.36e6 | inactive
CG14736 | DRSC23985 | 1.24e6 | 1.43e6 | 1.03e6 | 1.01e6 | inactive
hog | DRSC19057 | 1.13e6 | 3.99e5 | 9.53e5 | 4.84e5 | inactive
hog | DRSC26603 | 4.02e5 | 3.69e5 | 6.85e5 | 6.53e5 | inactive
mAChR-C | DRSC17890 | 2.43e5 | 2.98e5 | 3.48e6 | 3.51e6 | inactive
mAChR-C | DRSC27441 | 3.11e5 | 3.48e5 | 7.01e5 | 8.00e5 | inactive
Pat1 | DRSC17750 | 1.39e5 | 1.63e5 | 6.96e5 | 7.13e5 | inactive
Pat1 | DRSC27265 | 2.52e5 | 2.99e5 | 5.61e5 | 6.19e5 | inactive
CG17684 | DRSC37825 | 9.39e5 | 6.85e5 | 1.49e6 | 1.37e6 | inactive
CG31643 | DRSC00906 | 2.63e5 | 1.79e5 | 6.45e5 | 4.86e5 | inactive
Sec5 | DRSC00714 | 5.65e5 | 9.27e5 | 1.15e6 | 1.42e6 | inactive
TBC1d7 | DRSC15985 | 1.46e5 | 1.96e5 | 2.05e6 | 2.37e6 | inactive
CG8060 | DRSC07064 | 1.18e6 | 6.67e5 | 2.83e6 | 1.91e6 | inactive
polybromo | DRSC14307 | 42904 | 77869 | 4.13e5 | 4.31e5 | inactive
fs(1)K10 | DRSC18775 | 72159 | 60645 | 5.66e5 | 4.11e5 | inactive
fs(1)K10 | DRSC25258 | 6.29e5 | 4.46e5 | 4.98e5 | 4.22e5 | inactive
Eip75B | DRSC23047 | 6.63e5 | 6.59e5 | 8.93e5 | 9.64e5 | inactive
Eip75B | DRSC37540 | 5.64e5 | 4.60e5 | 1.61e6 | 1.21e6 | inactive
PGRP-SD | DRSC10856 | 88294 | 1.69e5 | 1.22e6 | 2.29e6 | inactive
CG3909 | DRSC14150 | 69058 | 1.22e5 | 1.35e6 | 1.98e6 | inactive
Plp | DRSC10006 | 1.29e5 | 1.73e5 | 1.49e6 | 1.92e6 | inactive
Plp | DRSC10333 | 1.30e5 | 1.54e5 | 1.49e6 | 1.40e6 | inactive
Plp | DRSC10700 | 2.93e5 | 8.39e5 | 7.29e5 | 1.88e6 | inactive
AP-1-2beta | DRSC19336 | 97792 | 1.62e5 | 3.47e5 | 3.09e5 | inactive
AP-1-2beta | DRSC23868 | 7.63e5 | 8.62e5 | 8.10e5 | 9.15e5 | inactive
CG34227 | DRSC06788 | 1.73e5 | 1.51e5 | 1.03e6 | 9.60e5 | inactive
CG34227 | DRSC07034 | 2.86e5 | 2.23e5 | 1.79e6 | 1.72e6 | inactive
CG32040 | DRSC22459 | 3.80e5 | 7.68e5 | 8.23e5 | 1.75e6 | inactive
ifc | DRSC03549 | 9.25e5 | 8.84e5 | 1.57e6 | 1.75e6 | inactive
CG3556 | DRSC18309 | 1.10e5 | 1.44e5 | 7.39e5 | 1.07e6 | inactive
CG3556 | DRSC27365 | 3.21e5 | 2.49e5 | 7.18e5 | 7.79e5 | inactive

Laid out differently: 6 of the entries above
target gene	dsRNA	firefly reporter light, replicate 1	firefly reporter light, replicate 2	Renilla control light, replicate 1	Renilla control light, replicate 2	Outcome
CG34227	DRSC06788	1.73e5	1.51e5	1.03e6	9.60e5	inactive
CG34227	DRSC07034	2.86e5	2.23e5	1.79e6	1.72e6	inactive
CG32040	DRSC22459	3.80e5	7.68e5	8.23e5	1.75e6	inactive
ifc	DRSC03549	9.25e5	8.84e5	1.57e6	1.75e6	inactive
CG3556	DRSC18309	1.10e5	1.44e5	7.39e5	1.07e6	inactive
CG3556	DRSC27365	3.21e5	2.49e5	7.18e5	7.79e5	inactive

Next entries:
target gene | dsRNA | firefly reporter light, replicate 1 | firefly reporter light, replicate 2 | Renilla control light, replicate 1 | Renilla control light, replicate 2 | Outcome
ppk29 | DRSC04205 | 4.36e5 | 3.56e5 | 2.09e6 | 1.76e6 | inactive
CG8837 | DRSC00711 | 1.09e5 | 1.19e5 | 7.76e5 | 8.07e5 | inactive
CG8837 | DRSC29440 | 3.52e5 | 4.04e5 | 5.63e5 | 5.63e5 | inactive
Su(var)3-7 | DRSC16872 | 33277 | 50376 | 6.76e5 | 1.08e6 | inactive
l(3)L1231 | DRSC16323 | 26496 | 1.01e5 | 3.25e5 | 3.75e5 | inactive
CG11700 | DRSC17794 | 12919 | 28432 | 1.55e5 | 1.60e5 | inactive
CG11700 | DRSC23384 | 1.23e5 | 1.48e5 | 1.29e5 | 1.45e5 | inactive
CG9263 | DRSC03176 | 4.17e5 | 3.22e5 | 2.30e6 | 2.06e6 | inactive
CG11980 | DRSC14456 | 20866 | 51918 | 1.92e5 | 3.10e5 | inactive
CG3164 | DRSC00572 | 40390 | 37636 | 3.10e5 | 3.65e5 | inactive
mRpS31 | DRSC10556 | 96847 | 53807 | 9.55e5 | 5.07e5 | inactive
Tmlh | DRSC15563 | 2.79e5 | 4.06e5 | 2.91e6 | 3.35e6 | inactive
Pbp95 | DRSC15448 | 57456 | 66326 | 1.27e6 | 1.51e6 | inactive
Pbp95 | DRSC27283 | 5.68e5 | 5.34e5 | 1.99e5 | 1.79e5 | inactive
prd | DRSC03597 | 8.38e5 | 1.19e6 | 1.35e6 | 1.96e6 | inactive
CG30158 | DRSC04956 | 1.33e5 | 1.46e5 | 2.42e5 | 3.18e5 | inactive
CG30158 | DRSC04974 | 2.14e5 | 2.52e5 | 1.89e6 | 1.83e6 | inactive
CG30158 | DRSC04975 | 2.34e5 | 2.92e5 | 1.99e6 | 2.10e6 | inactive
CG30158 | DRSC05012 | 3.18e5 | 3.26e5 | 1.70e6 | 1.90e6 | inactive
asRNA:CR31514 + CG12947 | DRSC14575 | 93995 | 1.24e5 | 1.73e6 | 1.79e6 | inactive
CG14411 | DRSC19597 | 4.72e5 | 2.46e5 | 2.75e6 | 1.95e6 | inactive
CG14411 | DRSC29396 | 4.09e5 | 4.92e5 | 1.10e6 | 1.10e6 | inactive
Mec2 | DRSC20054 | 46681 | 86878 | 6.69e5 | 8.59e5 | inactive
Mec2 | DRSC26162 | 3.54e5 | 3.83e5 | 7.02e5 | 7.43e5 | inactive
Ufd1 | DRSC10607 | 9.11e5 | 7.76e5 | 2.08e6 | 2.64e6 | inactive
Gr28a | DRSC02290 | 1.97e5 | 1.88e5 | 1.60e6 | 1.35e6 | inactive
ssh | DRSC16730 | 1.15e5 | 1.68e5 | 2.24e6 | 1.81e6 | inactive
ssh | DRSC28782 | 4.38e5 | 3.72e5 | 9.08e5 | 7.58e5 | inactive
ssh | DRSC36804 | – | – | – | – | inactive
ssh | DRSC36805 | – | – | – | – | inactive
